{"source": "PubChem BioAssay AID602196 (INSERM, 2012)", "assay": "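Knock-downs that protect lung cancer cells from cisplatin or sensitise them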", "system": "human A549 lung cancer cells", "knock-down reagent": "siRNA pair against human genes", "timing": "48 h transfection before cisplatin; time from cisplatin to read-out not stated", "conditions": "cisplatin at a dose killing half of control-siRNA cells; exact dose and duration not given", "measurement": "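Cisplatin cell death as a shift from the 50% death seen with control siRNA; siRNAs toxic or growth-blocking alone scored 0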", "direction": "two-siRNA summed score (-2 to +2): higher = both siRNAs protect from cisplatin killing; -2 means both sensitise; mean protection from cisplatin (shift in death): higher = protection from cisplatin killing", "call rule": "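Each siRNA scores 0 if harmful alone by LDH or WST-1, otherwise +1 if it reduces and -1 if it increases cisplatin killing; a gene is active when both siRNAs agree (sum +2 or -2)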", "meaning of the calls": "active = both siRNAs shift cisplatin killing the same way; inactive = no consistent shift, or siRNA harmful alone", "note": "This is one part, drawn at random, of about 23,000 deposited reagents. Of all reagents, 455 (2%) were called active. 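Active includes both protection and sensitisation; some change values fall well beyond the stated -50 to +50 range.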 Entries without a mark were called inactive. Further read-outs or replicates are left out here. Not stated in the record: the amount of reagent."}
{"target": "PSPN", "two-siRNA summed score (-2 to +2)": 0, "mean protection from cisplatin (shift in death) (%)": 12.2}
{"target": "KAZALD1", "two-siRNA summed score (-2 to +2)": 0, "mean protection from cisplatin (shift in death) (%)": 5.3}
{"target": "CFP", "two-siRNA summed score (-2 to +2)": 0, "mean protection from cisplatin (shift in death) (%)": 10.5}
{"target": "ST3GAL5", "two-siRNA summed score (-2 to +2)": 1, "mean protection from cisplatin (shift in death) (%)": 11.8}
{"target": "ESM1", "two-siRNA summed score (-2 to +2)": "-2 (active)", "mean protection from cisplatin (shift in death) (%)": -16.4}
{"target": "LYG2", "two-siRNA summed score (-2 to +2)": 0, "mean protection from cisplatin (shift in death) (%)": 1}
{"target": "LOC442141", "two-siRNA summed score (-2 to +2)": 0, "mean protection from cisplatin (shift in death) (%)": 29.7}
{"target": "LOC285721", "two-siRNA summed score (-2 to +2)": 1, "mean protection from cisplatin (shift in death) (%)": 3.6}
{"target": "LOC391538", "two-siRNA summed score (-2 to +2)": 0, "mean protection from cisplatin (shift in death) (%)": 17.2}
{"target": "CDAN1", "two-siRNA summed score (-2 to +2)": 0, "mean protection from cisplatin (shift in death) (%)": -0.7}
{"target": "PRXL2C", "two-siRNA summed score (-2 to +2)": 0, "mean protection from cisplatin (shift in death) (%)": 3.3}
{"target": "MKRN10P", "two-siRNA summed score (-2 to +2)": -1, "mean protection from cisplatin (shift in death) (%)": -4.4}
{"target": "OR56B1", "two-siRNA summed score (-2 to +2)": 0, "mean protection from cisplatin (shift in death) (%)": 0.3}
{"target": "STYX", "two-siRNA summed score (-2 to +2)": 0, "mean protection from cisplatin (shift in death) (%)": 9.3}
{"target": "SOCS5", "two-siRNA summed score (-2 to +2)": 0, "mean protection from cisplatin (shift in death) (%)": -0.9}
{"target": "MARK2", "two-siRNA summed score (-2 to +2)": 0, "mean protection from cisplatin (shift in death) (%)": 8.2}
{"target": "LOC389162", "two-siRNA summed score (-2 to +2)": 1, "mean protection from cisplatin (shift in death) (%)": 10}
{"target": "AVIL", "two-siRNA summed score (-2 to +2)": 0, "mean protection from cisplatin (shift in death) (%)": 9.8}
{"target": "GLMN", "two-siRNA summed score (-2 to +2)": 0, "mean protection from cisplatin (shift in death) (%)": -3}
{"target": "PSMB6", "two-siRNA summed score (-2 to +2)": 0, "mean protection from cisplatin (shift in death) (%)": 12.6}
{"target": "ITPR2", "two-siRNA summed score (-2 to +2)": 0, "mean protection from cisplatin (shift in death) (%)": 14.1}
{"target": "MMRN2", "two-siRNA summed score (-2 to +2)": 1, "mean protection from cisplatin (shift in death) (%)": 11.6}
{"target": "LOC150946", "two-siRNA summed score (-2 to +2)": 1, "mean protection from cisplatin (shift in death) (%)": 18.9}
{"target": "KPNA2", "two-siRNA summed score (-2 to +2)": -1, "mean protection from cisplatin (shift in death) (%)": -20.5}
{"target": "ZSCAN26", "two-siRNA summed score (-2 to +2)": 0, "mean protection from cisplatin (shift in death) (%)": -5.9}
{"target": "ANP32E", "two-siRNA summed score (-2 to +2)": 0, "mean protection from cisplatin (shift in death) (%)": -0.4}
{"target": "LOC400551", "two-siRNA summed score (-2 to +2)": 0, "mean protection from cisplatin (shift in death) (%)": -6}
{"target": "FTCD", "two-siRNA summed score (-2 to +2)": 1, "mean protection from cisplatin (shift in death) (%)": 6.2}
{"target": "ELF1", "two-siRNA summed score (-2 to +2)": 0, "mean protection from cisplatin (shift in death) (%)": 6.7}
{"target": "MTTP", "two-siRNA summed score (-2 to +2)": -1, "mean protection from cisplatin (shift in death) (%)": -13}
{"target": "RND1", "two-siRNA summed score (-2 to +2)": 0, "mean protection from cisplatin (shift in death) (%)": 11.3}

Targets above whose gene name begins with E or e (2):
{"target": "ESM1", "two-siRNA summed score (-2 to +2)": "-2 (active)", "mean protection from cisplatin (shift in death) (%)": -16.4}
{"target": "ELF1", "two-siRNA summed score (-2 to +2)": 0, "mean protection from cisplatin (shift in death) (%)": 6.7}
